Some of the results follow. Many values rest on one well or one pass, so single values are uncertain.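 Labelled rat cortical synaptosomes were engulfed by primary human fetal astrocytes. Engulfment equaled a red/green ratio, corrected for calcein live-cell signal and normalized to the plate median. Compounds were toxic when calcein dropped over 30%, and reduced phagocytosis when below 70% of the median above 5 µM.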
Assays:
Conditions in all cases: 24 h
Human fetal astrocytes [1] = experiment: synaptosome phagocytosis (pHrodo/calcein intensity ratio) relative to plate median of data wells; higher = more phagocytosis
Human fetal astrocytes [2] = experiment: as above; remark: listed apart in the source
Human fetal astrocytes [3] = experiment: loss of total cells relative to no-compound high-control median (toxicity); higher = more toxic (fewer cells)

How did the synaptosome phagocytosis (Human fetal astrocytes [1]; 1.39 µM) turn out when `CC(=O)Oc1ccc(Cl)c2cccnc12` was run?
Its synaptosome phagocytosis is 124%.

What about the synaptosome phagocytosis (Human fetal astrocytes [1]; 2.78 µM) of the same molecule?
The synaptosome phagocytosis was 110%.

And the synaptosome phagocytosis (Human fetal astrocytes [1]; 5.56 µM)?
The synaptosome phagocytosis was 82.1%.

What about the synaptosome phagocytosis (Human fetal astrocytes [1]; 11.11 µM) of the same molecule?
The synaptosome phagocytosis was 90.1%.

And the synaptosome phagocytosis (Human fetal astrocytes [1]; 22.22 µM)?
Its synaptosome phagocytosis is 55.9%.

With `C=C(C)[C@@H]1[C@H]2OC(=O)[C@@H]1[C@]1(O)C[C@H]3OC34C(=O)O[C@H]2[C@@]41C.CC(C)(O)[C@@H]1[C@H]2OC(=O)[C@@H]1[C@]1(O)C[C@H]3OC34C(=O)O[C@H]2[C@@]41C` (stereo not given in full) [Picrotoxin] as the molecule, how does the synaptosome phagocytosis (Human fetal astrocytes [2]; 1.39 µM) read?
Its synaptosome phagocytosis is 84.2%.

And the synaptosome phagocytosis (Human fetal astrocytes [2]; 2.78 µM)?
Its synaptosome phagocytosis is 123%.

What about the synaptosome phagocytosis (Human fetal astrocytes [2]; 5.56 µM) of the same molecule?
The synaptosome phagocytosis was 97.9%.

What about the synaptosome phagocytosis (Human fetal astrocytes [2]; 11.11 µM) of the same molecule?
The synaptosome phagocytosis was 77.4%.

And the synaptosome phagocytosis (Human fetal astrocytes [2]; 22.22 µM)?
Its synaptosome phagocytosis is 137%.

Which results are given for `C=C(C)[C@@H]1[C@H]2OC(=O)[C@@H]1[C@]1(O)C[C@H]3O[C@]34C(=O)O[C@H]2[C@]14C`?
synaptosome phagocytosis (Human fetal astrocytes [1]; 1.39 µM): 83.1%; synaptosome phagocytosis (Human fetal astrocytes [1]; 2.78 µM): 108%; synaptosome phagocytosis (Human fetal astrocytes [1]; 5.56 µM): 139%; synaptosome phagocytosis (Human fetal astrocytes [1]; 11.11 µM): 130%; synaptosome phagocytosis (Human fetal astrocytes [1]; 22.22 µM): 136%

Which results are given for `C[C@@H]1O[C@@H](O[C@H]2CC[C@]3(C=O)[C@H]4CC[C@]5(C)[C@@H](C6=CC(=O)OC6)CC[C@]5(O)[C@@H]4CC[C@]3(O)C2)[C@H](O)[C@H](O)[C@H]1O`?
loss of total cells (Human fetal astrocytes [3]; 1.39 µM): -1.6%; loss of total cells (Human fetal astrocytes [3]; 2.78 µM): 2.5%; loss of total cells (Human fetal astrocytes [3]; 5.56 µM): 11%; loss of total cells (Human fetal astrocytes [3]; 11.11 µM): 16.9%; loss of total cells (Human fetal astrocytes [3]; 22.22 µM): 5.2%

From the supplement of paper PMC10689618
